This passage reports Ki results from BindingDB's records for PubMed 1586393 (U. 109, 1992).

By UniProt entry, the sequences of proteins in these tests, tags left out. Chains listed by the source or under a name are the forms on record and can include a tag or linker.
UniProt P35462, as listed by the source: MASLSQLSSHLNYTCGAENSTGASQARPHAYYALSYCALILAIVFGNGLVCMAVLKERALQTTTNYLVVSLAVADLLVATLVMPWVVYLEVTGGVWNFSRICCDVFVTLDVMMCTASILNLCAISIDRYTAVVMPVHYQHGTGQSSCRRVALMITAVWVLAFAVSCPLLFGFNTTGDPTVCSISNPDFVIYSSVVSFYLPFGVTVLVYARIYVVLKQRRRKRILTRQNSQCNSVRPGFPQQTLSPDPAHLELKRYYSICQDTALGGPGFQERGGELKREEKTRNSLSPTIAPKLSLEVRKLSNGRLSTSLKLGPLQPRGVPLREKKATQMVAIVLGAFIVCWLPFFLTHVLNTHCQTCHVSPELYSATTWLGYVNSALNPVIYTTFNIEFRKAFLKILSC

The assay concerns the target D(3) dopamine receptor (Homo sapiens, UniProt P35462).

Turning to `CN1CCN(CCCN2c3ccccc3Sc3ccc(Cl)cc32)CC1` [2-chloro-10-[3-(4-methylpiperazin-1-yl)propyl]phenothiazine;ethane-1,2-disulfonic acid], the Ki turned out to be 1.8 nM. In other words, the single-digit nanomolar range.
